The list does not hold the whole screen: it is rich in T/C values a quarter to a half above the control, in often repeated tests (any T/C) and in doses without a T/C. Further doses and runs are listed elsewhere. T/C gives the treated animals as a percentage of the vehicle group. Some entries give survivors of the animals treated and no T/C: the source holds a T/C of zero for them, seemingly a mark for toxic or unscored doses. Some doses without a T/C left all or most animals alive at the check, yet need not have been tolerated: the source hardly ever lists a survival T/C far under the control, and the zero likely stands for such cases as well. Survivors were counted at the toxicity check, usually on the fifth day, unless a day is given; later deaths do not show. Schedules are NCI's codes, read here as Q, the interval in days (D) or hours (H), X, the number of doses. For survival time, this PubChem deposit counts one and a half times the control or more as active, and values a quarter to a half above the control carry no call in these data; other NCI protocols may use other cut-offs. Some doses were run more than once; the results are listed from low to high. Some T/C values carry the count of animals alive at the toxicity check (mostly the fifth day); without a count, all were alive then.
Test system: P388 leukemia ip, CD2F1 mice, survival T/C
Assay: NCI In Vivo Anticancer Drug Screen. Data for tumor model P388 Leukemia (intraperitoneal) in CD2F1 (CDF1) mice
Settings: T/C endpoint: median survival time, higher T/C = longer survival
[1] = dose: 200.0 mg/kg/injection, schedule: Q01DX005 (ip), vehicle: Klucel (hydroxypropylcellulose) (HPC)
[2] = dose: 15.0 mg/kg/injection, schedule: Q01DX009 (ip), vehicle: saline with Tween-80
[3] = dose: 30.0 mg/kg/injection, schedule: Q01DX009 (ip), vehicle: saline with Tween-80
[4] = dose: 60.0 mg/kg/injection, schedule: Q01DX009 (ip), vehicle: saline with Tween-80
[5] = dose: 25.0 mg/kg/injection, schedule: Q01DX005 (ip), vehicle: Klucel (hydroxypropylcellulose) (HPC)
[6] = dose: 50.0 mg/kg/injection, schedule: Q01DX005 (ip), vehicle: Klucel (hydroxypropylcellulose) (HPC)
[7] = dose: 100.0 mg/kg/injection, schedule: Q01DX005 (ip), vehicle: Klucel (hydroxypropylcellulose) (HPC)
[8] = dose: 50.0 mg/kg/injection, schedule: Q01DX009 (ip), vehicle: saline

Nc1ccc2c(-c3ccccc3)cc(=O)[nH]c2c1
survivor count [1]: 5 of 5

CC1(C)OC(=O)C(CCc2ccccn2)(CCc2ccccn2)C(=O)O1
survivor count (dose: 50.0 mg/kg/injection, schedule: Q01DX009 (ip), vehicle: saline with Tween-80): 3 of 6

CCCC[S][Sn]([CH2]CCC)([CH2]CCC)[S]CCCC
T/C (dose: 0.75 mg/kg/injection, schedule: Q01DX009 (ip), vehicle: saline with Tween-80): 134 % of control | T/C (dose: 1.5 mg/kg/injection, schedule: Q01DX009 (ip), vehicle: saline with Tween-80): 142 and 144 % of control | survivor count (dose: 3.0 mg/kg/injection, schedule: Q01DX009 (ip), vehicle: saline with Tween-80): 5 of 6 | survivor count (dose: 6.0 mg/kg/injection, schedule: Q01DX009 (ip), vehicle: saline with Tween-80): 3 of 6 | survivor count (dose: 12.0 mg/kg/injection, schedule: Q01DX009 (ip), vehicle: saline with Tween-80): 1 of 6

COC(OC)C(C)N1CCCCC1 (configuration not stated)
survivor count (dose: 100.0 mg/kg/injection, schedule: Q01DX009 (ip), vehicle: saline): 4 of 6 | survivor count (dose: 200.0 mg/kg/injection, schedule: Q01DX009 (ip), vehicle: saline): 0 of 6

O=C(NO)c1cc(O)c(O)c(O)c1
T/C (dose: 100.0 mg/kg/injection, schedule: Q01DX005 (ip), vehicle: distilled water + Tween-80): 145 % of control | survivor count (dose: 400.0 mg/kg/injection, schedule: Q01DX005 (ip), vehicle: distilled water + Tween-80): 4 of 6 | survivor count (dose: 400.0 mg/kg/injection, schedule: Q01DX009 (ip), vehicle: distilled water + Tween-80): 2 of 5 | survivor count (dose: 800.0 mg/kg/injection, schedule: Q01DX005 (ip), vehicle: distilled water + Tween-80): 6 of 6 | survivor count (dose: 800.0 mg/kg/injection, schedule: Q01DX009 (ip), vehicle: distilled water + Tween-80): 1 of 5

C=C(C)C(=O)O[C@H]1[C@H]2[C@H](OC(=O)[C@H]2C)[C@H](O)[C@@H](C)[C@@H]2C=CC(=O)[C@]21C
T/C [2]: 130 % of control | T/C [3]: 140 % of control [5 of 6 alive] | T/C [4]: 130 % of control

COc1ccc(CCN2C(=O)CSC2=S)cc1OC
survivor count (dose: 400.0 mg/kg/injection, schedule: Q01DX009 (ip), vehicle: saline with Tween-80): 4 of 6

C[C@H]1C[C@@H]2[C@H]([C@@H](O)C[C@@]3(C)[C@H]2CC[C@]3(O)C(=O)CO)[C@@]2(C)C=CC(=O)C=C12
survivor count (dose: 100.0 mg/kg/injection, schedule: Q01DX009 (ip), vehicle: saline with Tween-80): 6 of 6 | T/C (dose: 200.0 mg/kg/injection, schedule: Q04DX003 (ip), vehicle: saline with Tween-80): 137 % of control

C=C1C(O)C23CCC4C(C(=O)O)(C(=O)O)CC(OC5OC(CO)C(O)C(OC(=O)CCc6ccccc6)C5NC(=O)CC(C)C)CC4(C)C2CCC1(O)C3 (configuration not stated)
survivor count (dose: 6.25 mg/kg/injection, schedule: Q01DX005 (ip), vehicle: Klucel (hydroxypropylcellulose) (HPC)): 0 of 5 | survivor count (dose: 12.5 mg/kg/injection, schedule: Q01DX005 (ip), vehicle: Klucel (hydroxypropylcellulose) (HPC)): 0 of 5

O=C(CC1(O)C(=O)N(CN2CCCCC2)c2ccccc21)c1ccccc1 (configuration not stated)
survivor count (dose: 200.0 mg/kg/injection, schedule: Q01DX009 (ip), vehicle: saline with Tween-80): 6 of 6

CCN(CC)CC.[CH-]1CCCCC1.[CH-]1CCCCC1.[CH-]1CCCCC1.[Cl-].[N-]=C=NC(=O)NC1CCCCC1.[Sn+4]
survivor count (dose: 12.0 mg/kg/injection, schedule: Q01DX005 (ip), vehicle: Klucel (hydroxypropylcellulose) (HPC)): 2 of 6 | survivor count [5]: 0 of 6 | survivor count [6]: 0 of 6 | survivor count [7]: 0 of 6 | survivor count [1]: 0 of 6

CSc1nc2ccc(NC(=O)CCC(=O)O)cc2s1
survivor count (dose: 50.0 mg/kg/injection, schedule: Q01DX009 (ip), vehicle: Klucel (hydroxypropylcellulose) (HPC)): 6 of 6 | survivor count (dose: 100.0 mg/kg/injection, schedule: Q01DX009 (ip), vehicle: Klucel (hydroxypropylcellulose) (HPC)): 6 of 6 | survivor count (dose: 200.0 mg/kg/injection, schedule: Q01DX009 (ip), vehicle: Klucel (hydroxypropylcellulose) (HPC)): 6 of 6

CN(C)C=Nc1cc(N)n(C#N)c(=S)n1
survivor count [2]: 4 of 6 | survivor count [3]: 0 of 6 | survivor count [4]: 0 of 6

CCC1=C[C@H]2CN(CCc3c([nH]c4cc(Br)ccc34)[C@@](C(=O)OC)(c3cc4c(cc3OC)N(C)[C@H]3[C@@](O)(C(=O)OC)[C@H](OC(C)=O)[C@]5(CC)C=CCN6CC[C@]43[C@@H]65)C2)C1
T/C (dose: 8.0 mg/kg/injection, schedule: Q01DX001 (ip), vehicle: water): 132 % of control | T/C (dose: 10.8 mg/kg/injection, schedule: Q01DX001 (ip), vehicle: water): 142 % of control | survivor count (dose: 50.0 mg/kg/injection, schedule: Q01DX001 (ip), vehicle: water): 0 of 6

CN(C)C1C2(C)CCC(C2)C1(C)C (configuration not stated)
survivor count (dose: 200.0 mg/kg/injection, schedule: Q01DX005 (ip), vehicle: saline with Tween-80): 0 of 6

O=C1C=CC(=O)C2(CO)OC12 (configuration not stated)
survivor count (dose: 7.5 mg/kg/injection, schedule: Q04DX002 (ip), vehicle: saline with Tween-80): 0 of 6 | survivor count (dose: 37.5 mg/kg/injection, schedule: Q04DX002 (ip), vehicle: saline): 0 of 6 | survivor count (dose: 75.0 mg/kg/injection, schedule: Q04DX002 (ip), vehicle: saline): 0 of 6 | survivor count (dose: 150.0 mg/kg/injection, schedule: Q04DX002 (ip), vehicle: saline): 0 of 6

O=[N+]([O-])c1ccc(/C=C/[n+]2ccc3ccccc3c2)o1
survivor count (dose: 12.5 mg/kg/injection, schedule: Q01DX009 (ip), vehicle: saline): 3 of 6 | survivor count (dose: 25.0 mg/kg/injection, schedule: Q01DX009 (ip), vehicle: saline): 1 of 6 | survivor count (dose: 50.0 mg/kg/injection, schedule: Q01DX009 (ip), vehicle: suspension in saline): 1 of 6 | survivor count (dose: 100.0 mg/kg/injection, schedule: Q01DX009 (ip), vehicle: suspension in saline): 0 of 6 | survivor count (dose: 200.0 mg/kg/injection, schedule: Q01DX009 (ip), vehicle: suspension in saline): 0 of 6

Cc1ccc(S(=O)(=O)N/N=C(\Cc2ccccc2)c2ccc(Br)cc2)cc1
survivor count [8]: 6 of 6

N#[N+]c1c([O-])ccc2ccccc12
survivor count (dose: 100.0 mg/kg/injection, schedule: Q04DX002 (ip), vehicle: Klucel (hydroxypropylcellulose) (HPC)): 6 of 6 | survivor count (dose: 200.0 mg/kg/injection, schedule: Q04DX002 (ip), vehicle: Klucel (hydroxypropylcellulose) (HPC)): 6 of 6 | survivor count (dose: 400.0 mg/kg/injection, schedule: Q04DX002 (ip), vehicle: Klucel (hydroxypropylcellulose) (HPC)): 6 of 6

O=C(CI)Nc1ccc2[nH]c(=O)cc(C(=O)O)c2c1
survivor count [1]: 0 of 6

Cc1[nH]c2ccccc2c1CC[n+]1cccc(C#N)c1
survivor count [5]: 2 of 6 | survivor count [6]: 0 of 6 | survivor count [7]: 0 of 6 | survivor count [1]: 0 of 6

O=Cc1ccccc1
survivor count (dose: 400.0 mg/kg/injection, schedule: Q01DX009 (ip), vehicle: Klucel (hydroxypropylcellulose) (HPC)): 4 of 6 | survivor count (dose: 800.0 mg/kg/injection, schedule: Q01DX009 (ip), vehicle: Klucel (hydroxypropylcellulose) (HPC)): 0 of 6 | survivor count (dose: 1600.0 mg/kg/injection, schedule: Q01DX009 (ip), vehicle: Klucel (hydroxypropylcellulose) (HPC)): 0 of 6 | survivor count (dose: 3200.0 mg/kg/injection, schedule: Q01DX009 (ip), vehicle: Klucel (hydroxypropylcellulose) (HPC)): 0 of 6

CCCC(=O)NN=C(C)C
survivor count [8]: 6 of 6

C1=NN2C3c4ccccc4C(C1)C32 (configuration not stated)
survivor count (dose: 400.0 mg/kg/injection, schedule: Q01DX001 (ip), vehicle: Klucel (hydroxypropylcellulose) (HPC)): 0 of 6

Source: PubChem BioAssay AID330 (DTP/NCI, 2004)
